The target in test [1] is T1, Paired immunoglobulin-like receptor B (PirB) on monocyte-derived macrophages (mouse (endogenous in mouse MDMs)) (UniProt P97484).
T1 sequence: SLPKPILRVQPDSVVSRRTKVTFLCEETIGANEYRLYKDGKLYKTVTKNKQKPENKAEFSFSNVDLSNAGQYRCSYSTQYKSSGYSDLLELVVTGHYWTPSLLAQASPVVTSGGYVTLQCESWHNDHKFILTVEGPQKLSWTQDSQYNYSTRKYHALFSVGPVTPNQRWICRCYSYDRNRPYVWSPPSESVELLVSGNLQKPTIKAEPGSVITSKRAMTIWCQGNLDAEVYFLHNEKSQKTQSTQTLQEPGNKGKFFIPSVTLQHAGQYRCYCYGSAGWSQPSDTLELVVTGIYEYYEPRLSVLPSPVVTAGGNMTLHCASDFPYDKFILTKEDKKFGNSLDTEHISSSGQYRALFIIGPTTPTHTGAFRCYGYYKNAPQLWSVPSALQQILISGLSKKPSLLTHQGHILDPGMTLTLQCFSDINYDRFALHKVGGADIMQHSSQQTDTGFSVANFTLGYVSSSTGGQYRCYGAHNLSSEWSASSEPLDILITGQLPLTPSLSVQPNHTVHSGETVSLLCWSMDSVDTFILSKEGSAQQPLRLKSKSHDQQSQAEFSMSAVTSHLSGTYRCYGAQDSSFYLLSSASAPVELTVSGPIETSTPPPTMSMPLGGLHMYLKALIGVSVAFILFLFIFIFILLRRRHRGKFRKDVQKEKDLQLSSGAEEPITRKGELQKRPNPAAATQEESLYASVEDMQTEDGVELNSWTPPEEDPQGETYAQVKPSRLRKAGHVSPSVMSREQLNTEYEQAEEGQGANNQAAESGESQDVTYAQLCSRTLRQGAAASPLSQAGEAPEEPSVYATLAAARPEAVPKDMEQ
Description: co-IP; endogenous PirB and SHP-1/2 in mouse MDMs, with or without rA8 treatment.

Sequences of proteins named here, by UniProt entry; tags and fusion partners are left off.
UniProt P29351: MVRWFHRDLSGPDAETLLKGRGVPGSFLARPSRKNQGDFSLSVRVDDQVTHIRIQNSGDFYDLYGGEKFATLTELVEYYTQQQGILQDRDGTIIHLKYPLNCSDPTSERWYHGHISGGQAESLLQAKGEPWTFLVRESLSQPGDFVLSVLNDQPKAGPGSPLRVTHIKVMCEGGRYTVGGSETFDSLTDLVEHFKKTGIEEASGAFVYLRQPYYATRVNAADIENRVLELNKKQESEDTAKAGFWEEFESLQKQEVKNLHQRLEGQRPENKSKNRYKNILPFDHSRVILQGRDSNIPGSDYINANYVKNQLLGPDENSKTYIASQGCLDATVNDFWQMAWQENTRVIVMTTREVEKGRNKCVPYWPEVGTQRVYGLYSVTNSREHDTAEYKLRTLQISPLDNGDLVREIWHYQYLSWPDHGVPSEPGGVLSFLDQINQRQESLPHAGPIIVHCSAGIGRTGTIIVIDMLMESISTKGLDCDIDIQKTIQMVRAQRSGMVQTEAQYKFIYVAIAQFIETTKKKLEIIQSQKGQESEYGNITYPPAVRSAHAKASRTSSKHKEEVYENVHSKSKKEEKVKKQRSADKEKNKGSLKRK

For test [2], the target named is T1, Paired immunoglobulin-like receptor B (PirB) on monocyte-derived macrophages (mouse (endogenous in mouse MDMs)). Description: co-IP; mouse MDMs treated with exogenous Flag-tagged rA8; lysed in Co-IP buffer (pH 7.5, 1% Triton X-100, 150 mM NaCl, 20 mM Tris, 1 mM EDTA); IP with anti-Flag or anti-PirB overnight at 4 °C, Protein A/G, western blot; only the binder purified. For orientation: In western blotting, separated proteins are transferred to a membrane and probed.

In test [3] the target is T2, GST-PirB ectodomain (mouse) (UniProt P97484).
T2 sequence: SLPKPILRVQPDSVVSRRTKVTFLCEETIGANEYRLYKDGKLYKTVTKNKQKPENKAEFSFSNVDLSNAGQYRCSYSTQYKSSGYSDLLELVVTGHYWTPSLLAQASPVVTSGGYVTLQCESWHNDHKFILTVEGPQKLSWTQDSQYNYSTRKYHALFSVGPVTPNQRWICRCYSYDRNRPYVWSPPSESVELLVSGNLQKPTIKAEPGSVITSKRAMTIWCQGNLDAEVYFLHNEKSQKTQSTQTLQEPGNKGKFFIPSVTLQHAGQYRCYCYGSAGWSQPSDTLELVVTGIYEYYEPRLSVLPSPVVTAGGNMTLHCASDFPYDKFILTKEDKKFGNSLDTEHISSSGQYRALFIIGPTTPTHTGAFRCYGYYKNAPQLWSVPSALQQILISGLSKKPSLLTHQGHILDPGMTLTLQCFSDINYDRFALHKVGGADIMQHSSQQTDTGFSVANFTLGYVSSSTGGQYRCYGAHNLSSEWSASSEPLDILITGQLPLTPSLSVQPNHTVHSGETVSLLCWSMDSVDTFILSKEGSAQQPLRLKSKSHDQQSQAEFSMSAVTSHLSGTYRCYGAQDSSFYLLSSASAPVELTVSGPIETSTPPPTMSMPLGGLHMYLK
Put plainly: pull-down; in vitro GST pull-down (Pierce GST Protein Interaction Pull-Down Kit); GST-PirB ectodomain as bait, purified Flag-tagged ANGPTL8 proteins; immunoblot with anti-GST, anti-His, anti-Flag; both purified.

Test [4] addresses T3, PirB ectodomain (22-643), expressed from pcDNA3.1-myc (mouse) (UniProt P97484).
T3 sequence: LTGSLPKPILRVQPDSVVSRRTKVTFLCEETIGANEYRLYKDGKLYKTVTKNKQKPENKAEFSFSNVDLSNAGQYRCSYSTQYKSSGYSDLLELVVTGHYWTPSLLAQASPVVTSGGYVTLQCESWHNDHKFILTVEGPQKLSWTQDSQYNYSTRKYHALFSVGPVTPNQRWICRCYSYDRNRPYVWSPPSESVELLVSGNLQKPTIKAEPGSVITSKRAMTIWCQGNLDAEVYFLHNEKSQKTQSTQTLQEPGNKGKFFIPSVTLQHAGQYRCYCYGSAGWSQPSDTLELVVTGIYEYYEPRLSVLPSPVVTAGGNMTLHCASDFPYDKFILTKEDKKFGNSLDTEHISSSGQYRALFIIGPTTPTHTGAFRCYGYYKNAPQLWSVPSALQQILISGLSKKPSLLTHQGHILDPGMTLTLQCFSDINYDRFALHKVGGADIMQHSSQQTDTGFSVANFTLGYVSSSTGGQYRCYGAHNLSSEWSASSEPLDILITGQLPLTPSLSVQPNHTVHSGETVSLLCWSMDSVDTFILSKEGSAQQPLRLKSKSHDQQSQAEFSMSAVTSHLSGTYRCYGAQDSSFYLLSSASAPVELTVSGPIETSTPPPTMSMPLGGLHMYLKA
Description: co-IP; cells transiently transfected with pcDNA3.1-flag ANGPTL8 constructs and pcDNA3.1-myc PirB ectodomain; lysed after 24 h in 1% Triton X-100, 150 mM NaCl, 20 mM Tris pH 7.5, 1 mM EDTA.

Test [5] deals with T4, recombinant ANGPTL8 protein (Flag-tagged) (UniProt Q8R1L8).
T4 sequence: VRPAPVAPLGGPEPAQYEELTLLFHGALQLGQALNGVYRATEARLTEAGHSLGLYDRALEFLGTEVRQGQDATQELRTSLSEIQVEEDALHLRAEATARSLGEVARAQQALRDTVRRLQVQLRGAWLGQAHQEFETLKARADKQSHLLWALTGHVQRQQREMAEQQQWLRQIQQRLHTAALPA
Description: receptors fishing experiment; receptors on MDMs fished with ANGPTL8; told only in the discussion.

These are yes or no findings as the source states them, for the method shown. For some of these results: In cells and extracts the contact can be indirect. Some results given as binding are weak or reduced against the parent protein; the word gives no strength. For some of these results: Where a sequence is shown, tags or fusion partners need not be part of it.

For “SHP-1 (from UniProt P29351 1-595) (enzyme)”, the binding entry in test [1] is “binds”.

B1: recombinant ANGPTL8 protein (Flag-tagged) (ligand, UniProt Q8R1L8 16-198)
chain: VRPAPVAPLGGPEPAQYEELTLLFHGALQLGQALNGVYRATEARLTEAGHSLGLYDRALEFLGTEVRQGQDATQELRTSLSEIQVEEDALHLRAEATARSLGEVARAQQALRDTVRRLQVQLRGAWLGQAHQEFETLKARADKQSHLLWALTGHVQRQQREMAEQQQWLRQIQQRLHTAALPA
As to B1, the binding result in test [2] and in test [3] was “binds” in each case.

B2: full-length ANGPTL8 (16-198), Flag-tagged, expressed from pcDNA3.1-flag (ligand, UniProt Q8R1L8 16-198)
chain: VRPAPVAPLGGPEPAQYEELTLLFHGALQLGQALNGVYRATEARLTEAGHSLGLYDRALEFLGTEVRQGQDATQELRTSLSEIQVEEDALHLRAEATARSLGEVARAQQALRDTVRRLQVQLRGAWLGQAHQEFETLKARADKQSHLLWALTGHVQRQQREMAEQQQWLRQIQQRLHTAALPA
Consider B2, for which the binding entry in test [4] is listed as “binds”.

B3: Paired immunoglobulin-like receptor B (PirB) on monocyte-derived macrophages (receptor, UniProt P97484 25-841)
chain: SLPKPILRVQPDSVVSRRTKVTFLCEETIGANEYRLYKDGKLYKTVTKNKQKPENKAEFSFSNVDLSNAGQYRCSYSTQYKSSGYSDLLELVVTGHYWTPSLLAQASPVVTSGGYVTLQCESWHNDHKFILTVEGPQKLSWTQDSQYNYSTRKYHALFSVGPVTPNQRWICRCYSYDRNRPYVWSPPSESVELLVSGNLQKPTIKAEPGSVITSKRAMTIWCQGNLDAEVYFLHNEKSQKTQSTQTLQEPGNKGKFFIPSVTLQHAGQYRCYCYGSAGWSQPSDTLELVVTGIYEYYEPRLSVLPSPVVTAGGNMTLHCASDFPYDKFILTKEDKKFGNSLDTEHISSSGQYRALFIIGPTTPTHTGAFRCYGYYKNAPQLWSVPSALQQILISGLSKKPSLLTHQGHILDPGMTLTLQCFSDINYDRFALHKVGGADIMQHSSQQTDTGFSVANFTLGYVSSSTGGQYRCYGAHNLSSEWSASSEPLDILITGQLPLTPSLSVQPNHTVHSGETVSLLCWSMDSVDTFILSKEGSAQQPLRLKSKSHDQQSQAEFSMSAVTSHLSGTYRCYGAQDSSFYLLSSASAPVELTVSGPIETSTPPPTMSMPLGGLHMYLKALIGVSVAFILFLFIFIFILLRRRHRGKFRKDVQKEKDLQLSSGAEEPITRKGELQKRPNPAAATQEESLYASVEDMQTEDGVELNSWTPPEEDPQGETYAQVKPSRLRKAGHVSPSVMSREQLNTEYEQAEEGQGANNQAAESGESQDVTYAQLCSRTLRQGAAASPLSQAGEAPEEPSVYATLAAARPEAVPKDMEQ
Regarding B3, the binding result in test [5] is “binds”.

B4: truncated ANGPTL8 A130-198 (CC-like domain), Flag-tagged (domain or fragment, UniProt Q8R1L8 130-198)
chain: VRRLQVQLRGAWLGQAHQEFETLKARADKQSHLLWALTGHVQRQQREMAEQQQWLRQIQQRLHTAALPA
Take B4: in test [4], the binding result is “binds”.

B5: truncated ANGPTL8 A55-198, Flag-tagged (domain or fragment, UniProt Q8R1L8 55-198)
chain: ATEARLTEAGHSLGLYDRALEFLGTEVRQGQDATQELRTSLSEIQVEEDALHLRAEATARSLGEVARAQQALRDTVRRLQVQLRGAWLGQAHQEFETLKARADKQSHLLWALTGHVQRQQREMAEQQQWLRQIQQRLHTAALPA
In the case of B5, the binding entry in test [4] was “binds”.

The values above are taken from article PMC10363120.
